The nature of the data set: FET characteristic evaluation of bottom-gate/top-contact type FET element prepared by spin coating. The conditions noted are these: for Ion/Ioff / Vth / µFET: Treated with OTS.

Turning to `CCCCc1cc2c(s1)-c1nc-2nc2[nH]c(nc3nc(nc4[nH]c(n1)c1cc(CCCC)sc41)-c1cc(CCCC)sc1-3)c1cc(CCCC)sc21` [1a, Tetrakis(5-butylthiopheno)[2.3-b]porphyrazine], for the setting “OTS treatment, annealing state not given”, the carrier mobility entry is “over 10^-4 cm^2/Vs”. In addition, under “Annealing at 100°C”, the Ion/Ioff is 10^2, the Vth is given as -18.5 V and the µFET is 4.75×10^-4 cm^2V^-1s^-1. For the same molecule, where the note is “No annealing”, the Ion/Ioff was determined as 10, the Vth is on record as -15.8 V and the µFET is 1.65×10^-4 cm^2V^-1s^-1.

Take `CCCCCCCCCCCCc1cc2c(s1)-c1nc-2nc2[nH]c(nc3nc(nc4[nH]c(n1)c1cc(CCCCCCCCCCCC)sc41)-c1cc(CCCCCCCCCCCC)sc1-3)c1cc(CCCCCCCCCCCC)sc21` [1b, Tetrakis(5-dodecylthiopheno)[2.3-b]porphyrazine]: for the setting “Annealing at 100°C”, the Ion/Ioff was 5×10^4, the Vth is -12.6 V and the µFET was 7.11×10^-2 cm^2V^-1s^-1. Where the note is “No annealing”, the Ion/Ioff is reported as 10^4, the Vth is listed as -10.1 V and the µFET is listed as 2.87×10^-2 cm^2V^-1s^-1. Also, for the setting “treated with OTS, before annealing, in the atmosphere”, the “carrier mobility (p-type)” value is “over 10^-2 cm^2/Vs”.

Source of the values: patent publication EP2138545B1, “USE OF PORPHYRAZINE DERIVATIVE AS SEMICONDUCTOR” (Hiroshima University, priority 2007, dated 2008).
